This is an account of results in PMC4507008.

These are yes or no findings as the source states them, for the method shown. In cells and extracts the contact can be indirect. Some binding calls cover weakened binding; strength is not graded here. Where a sequence is shown, tags or fusion partners need not be part of it.

Experiment [1] addresses T1, recombinant GST-HDA19 fusion protein (Arabidopsis thaliana) (UniProt O22446).
T1 sequence: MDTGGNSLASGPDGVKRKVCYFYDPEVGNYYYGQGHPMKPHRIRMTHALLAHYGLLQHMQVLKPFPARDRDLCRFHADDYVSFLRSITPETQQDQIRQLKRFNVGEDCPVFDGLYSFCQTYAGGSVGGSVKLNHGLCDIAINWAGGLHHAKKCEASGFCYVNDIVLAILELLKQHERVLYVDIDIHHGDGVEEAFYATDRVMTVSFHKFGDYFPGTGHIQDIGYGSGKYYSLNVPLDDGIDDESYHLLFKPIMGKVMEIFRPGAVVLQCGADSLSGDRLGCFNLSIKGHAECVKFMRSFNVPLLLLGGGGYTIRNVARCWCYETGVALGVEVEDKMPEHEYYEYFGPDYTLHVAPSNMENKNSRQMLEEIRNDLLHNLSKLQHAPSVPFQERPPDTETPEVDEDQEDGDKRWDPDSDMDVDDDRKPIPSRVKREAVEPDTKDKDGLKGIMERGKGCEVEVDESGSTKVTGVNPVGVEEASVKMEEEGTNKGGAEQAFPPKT
Nature of the experiment: pull-down; GST or GST-HDA19 incubated with [35S]Met-labelled translation mixture in bead-binding buffer (50 mM K-phosphate pH 7.6, 450 mM KCl, 10 mM MgCl2, 10% glycerol, 1% Triton X-100, 1% BSA) 1 h at room temperature, then glutathione-Sepharose beads 1 h at 4 °C; SDS-PAGE and fluorography; only the target purified.

The target in experiment [2] is T2, HDA19 fused to the C-terminal YFP fragment (Arabidopsis thaliana) (UniProt O22446).
T2 sequence: T1 sequence
Nature of the experiment: split reporter; BiFC with N-YFP and C-YFP fusions co-delivered into Arabidopsis protoplasts; confocal microscopy.

For experiment [3], the target named is T3, SCL15-sGFP fusion protein (SCL15pro::SCL15-sGFP) (Arabidopsis thaliana) (UniProt O23210).
T3 sequence: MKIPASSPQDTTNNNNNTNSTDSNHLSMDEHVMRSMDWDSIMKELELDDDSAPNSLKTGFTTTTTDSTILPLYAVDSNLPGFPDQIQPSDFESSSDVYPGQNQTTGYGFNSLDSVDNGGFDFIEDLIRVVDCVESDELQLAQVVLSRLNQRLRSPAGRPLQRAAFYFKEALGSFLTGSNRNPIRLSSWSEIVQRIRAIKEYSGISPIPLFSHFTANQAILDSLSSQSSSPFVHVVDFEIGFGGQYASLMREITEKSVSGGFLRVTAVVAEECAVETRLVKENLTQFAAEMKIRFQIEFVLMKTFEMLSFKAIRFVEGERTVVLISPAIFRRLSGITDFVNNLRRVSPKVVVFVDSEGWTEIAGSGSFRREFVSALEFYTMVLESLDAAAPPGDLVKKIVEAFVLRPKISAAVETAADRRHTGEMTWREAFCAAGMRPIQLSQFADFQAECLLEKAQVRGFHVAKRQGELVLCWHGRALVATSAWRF
Nature of the experiment: co-IP; nuclear protein extracts of roots of 2-week-old SCL15pro::SCL15-sGFP (Compl-6) seedlings, treated with or without ABA; polyclonal anti-GFP antibody on Dynabeads, 30 min at 4 °C; western blot with anti-HDA19 antibodies. (In western blotting, separated proteins are transferred to a membrane and probed.)

B1: [35S]methionine-labelled full-length SCL15 protein (protein, UniProt O23210 1-486)
chain: T3 sequence
modifications: [35S]methionine-labelled
With B1, in experiment [1], the binding entry is recorded as “binds”.

B2: SCL15 fused to the N-terminal yellow fluorescent protein (YFP) fragment (protein, UniProt O23210 1-486)
chain: T3 sequence
As for B2, the binding entry in experiment [2] is “binds”.

B3: HDA19, endogenous in Arabidopsis roots (enzyme, UniProt O22446 1-501)
chain: T1 sequence
Turning to B3, the binding entry in experiment [3] is “binds”.
